From the supplement of paper PMC11006884
This is a selection; strong and weak results do not stand in their true shares.

Amino acid sequences for entries named in this document (tags omitted). A change or cut given only in a name is not applied to a line headed by its entry.
UniProt Q9BU23: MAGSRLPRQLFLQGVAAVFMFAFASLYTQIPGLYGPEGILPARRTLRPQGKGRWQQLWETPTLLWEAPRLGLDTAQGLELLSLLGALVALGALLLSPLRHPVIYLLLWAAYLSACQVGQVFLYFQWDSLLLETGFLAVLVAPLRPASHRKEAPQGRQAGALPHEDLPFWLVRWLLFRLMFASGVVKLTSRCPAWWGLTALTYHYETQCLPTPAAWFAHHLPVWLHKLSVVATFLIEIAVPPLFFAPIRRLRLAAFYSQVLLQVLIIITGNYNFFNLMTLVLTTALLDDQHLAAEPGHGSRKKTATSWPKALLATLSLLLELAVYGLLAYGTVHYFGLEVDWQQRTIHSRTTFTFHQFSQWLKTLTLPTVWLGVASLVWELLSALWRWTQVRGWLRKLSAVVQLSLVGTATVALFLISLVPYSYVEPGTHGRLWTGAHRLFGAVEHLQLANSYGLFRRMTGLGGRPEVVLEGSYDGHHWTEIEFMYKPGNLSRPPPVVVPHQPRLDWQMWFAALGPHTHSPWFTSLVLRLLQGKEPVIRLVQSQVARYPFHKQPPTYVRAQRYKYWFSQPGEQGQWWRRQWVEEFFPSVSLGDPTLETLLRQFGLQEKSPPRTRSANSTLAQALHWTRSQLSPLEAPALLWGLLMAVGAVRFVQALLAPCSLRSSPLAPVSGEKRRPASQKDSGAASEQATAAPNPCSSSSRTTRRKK
UniProt Q9H0B6: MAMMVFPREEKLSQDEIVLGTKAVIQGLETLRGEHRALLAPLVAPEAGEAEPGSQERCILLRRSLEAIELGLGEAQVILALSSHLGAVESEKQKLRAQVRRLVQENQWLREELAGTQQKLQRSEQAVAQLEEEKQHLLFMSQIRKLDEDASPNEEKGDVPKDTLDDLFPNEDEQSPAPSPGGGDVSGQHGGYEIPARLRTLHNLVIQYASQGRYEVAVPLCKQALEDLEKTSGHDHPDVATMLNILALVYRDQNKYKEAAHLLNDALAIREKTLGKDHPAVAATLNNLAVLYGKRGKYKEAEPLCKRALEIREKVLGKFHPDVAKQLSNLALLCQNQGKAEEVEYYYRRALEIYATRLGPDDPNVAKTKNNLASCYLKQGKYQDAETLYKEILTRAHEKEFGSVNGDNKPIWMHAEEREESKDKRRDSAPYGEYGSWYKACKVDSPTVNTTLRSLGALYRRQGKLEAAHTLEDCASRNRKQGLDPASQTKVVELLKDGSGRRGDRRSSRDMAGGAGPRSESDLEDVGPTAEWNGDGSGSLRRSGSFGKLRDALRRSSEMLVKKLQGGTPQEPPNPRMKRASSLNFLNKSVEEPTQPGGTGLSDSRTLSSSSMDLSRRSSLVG
UniProt Q9BVG4: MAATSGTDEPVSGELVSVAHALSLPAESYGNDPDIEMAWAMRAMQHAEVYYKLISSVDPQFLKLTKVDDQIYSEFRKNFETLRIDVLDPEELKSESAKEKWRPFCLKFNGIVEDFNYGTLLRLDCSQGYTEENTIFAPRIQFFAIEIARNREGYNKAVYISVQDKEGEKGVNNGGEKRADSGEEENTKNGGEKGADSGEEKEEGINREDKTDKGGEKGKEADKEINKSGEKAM
UniProt Q9BU76: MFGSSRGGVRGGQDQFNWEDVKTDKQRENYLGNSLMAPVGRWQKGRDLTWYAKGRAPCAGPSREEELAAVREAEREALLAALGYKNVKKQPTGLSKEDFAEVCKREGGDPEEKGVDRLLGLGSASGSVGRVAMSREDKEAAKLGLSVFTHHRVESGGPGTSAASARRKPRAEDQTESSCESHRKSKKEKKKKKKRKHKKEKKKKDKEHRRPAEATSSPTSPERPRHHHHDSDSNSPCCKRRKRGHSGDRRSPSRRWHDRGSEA
UniProt Q9H1K1: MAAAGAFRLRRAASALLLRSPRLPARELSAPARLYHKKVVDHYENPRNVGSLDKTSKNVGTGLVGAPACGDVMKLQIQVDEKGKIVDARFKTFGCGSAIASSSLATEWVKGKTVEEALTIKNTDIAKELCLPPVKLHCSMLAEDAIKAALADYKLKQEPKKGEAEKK
UniProt Q9BV68: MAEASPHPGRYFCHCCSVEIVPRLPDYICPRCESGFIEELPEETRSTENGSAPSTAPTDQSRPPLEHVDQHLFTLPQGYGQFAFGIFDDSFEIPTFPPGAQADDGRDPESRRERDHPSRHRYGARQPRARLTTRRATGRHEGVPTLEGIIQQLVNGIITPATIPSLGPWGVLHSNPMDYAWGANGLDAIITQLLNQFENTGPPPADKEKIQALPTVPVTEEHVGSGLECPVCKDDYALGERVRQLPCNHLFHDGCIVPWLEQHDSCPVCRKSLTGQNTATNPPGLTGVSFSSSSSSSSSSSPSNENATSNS
UniProt Q9H1E5: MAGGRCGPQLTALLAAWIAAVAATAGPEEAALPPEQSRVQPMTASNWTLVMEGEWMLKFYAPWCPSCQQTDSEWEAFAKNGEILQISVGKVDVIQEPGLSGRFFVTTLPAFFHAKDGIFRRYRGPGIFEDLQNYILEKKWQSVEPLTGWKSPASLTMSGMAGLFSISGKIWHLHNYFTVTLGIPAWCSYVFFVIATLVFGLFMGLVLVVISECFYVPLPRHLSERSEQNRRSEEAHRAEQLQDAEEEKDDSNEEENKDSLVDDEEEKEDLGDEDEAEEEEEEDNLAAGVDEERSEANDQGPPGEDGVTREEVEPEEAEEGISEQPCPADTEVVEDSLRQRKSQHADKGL
UniProt Q9BW83: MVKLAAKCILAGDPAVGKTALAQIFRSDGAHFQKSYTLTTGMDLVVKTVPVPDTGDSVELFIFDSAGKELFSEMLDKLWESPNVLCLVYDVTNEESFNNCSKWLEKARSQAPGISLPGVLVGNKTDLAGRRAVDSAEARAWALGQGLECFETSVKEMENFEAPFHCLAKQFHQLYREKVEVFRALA
UniProt Q9H2P0: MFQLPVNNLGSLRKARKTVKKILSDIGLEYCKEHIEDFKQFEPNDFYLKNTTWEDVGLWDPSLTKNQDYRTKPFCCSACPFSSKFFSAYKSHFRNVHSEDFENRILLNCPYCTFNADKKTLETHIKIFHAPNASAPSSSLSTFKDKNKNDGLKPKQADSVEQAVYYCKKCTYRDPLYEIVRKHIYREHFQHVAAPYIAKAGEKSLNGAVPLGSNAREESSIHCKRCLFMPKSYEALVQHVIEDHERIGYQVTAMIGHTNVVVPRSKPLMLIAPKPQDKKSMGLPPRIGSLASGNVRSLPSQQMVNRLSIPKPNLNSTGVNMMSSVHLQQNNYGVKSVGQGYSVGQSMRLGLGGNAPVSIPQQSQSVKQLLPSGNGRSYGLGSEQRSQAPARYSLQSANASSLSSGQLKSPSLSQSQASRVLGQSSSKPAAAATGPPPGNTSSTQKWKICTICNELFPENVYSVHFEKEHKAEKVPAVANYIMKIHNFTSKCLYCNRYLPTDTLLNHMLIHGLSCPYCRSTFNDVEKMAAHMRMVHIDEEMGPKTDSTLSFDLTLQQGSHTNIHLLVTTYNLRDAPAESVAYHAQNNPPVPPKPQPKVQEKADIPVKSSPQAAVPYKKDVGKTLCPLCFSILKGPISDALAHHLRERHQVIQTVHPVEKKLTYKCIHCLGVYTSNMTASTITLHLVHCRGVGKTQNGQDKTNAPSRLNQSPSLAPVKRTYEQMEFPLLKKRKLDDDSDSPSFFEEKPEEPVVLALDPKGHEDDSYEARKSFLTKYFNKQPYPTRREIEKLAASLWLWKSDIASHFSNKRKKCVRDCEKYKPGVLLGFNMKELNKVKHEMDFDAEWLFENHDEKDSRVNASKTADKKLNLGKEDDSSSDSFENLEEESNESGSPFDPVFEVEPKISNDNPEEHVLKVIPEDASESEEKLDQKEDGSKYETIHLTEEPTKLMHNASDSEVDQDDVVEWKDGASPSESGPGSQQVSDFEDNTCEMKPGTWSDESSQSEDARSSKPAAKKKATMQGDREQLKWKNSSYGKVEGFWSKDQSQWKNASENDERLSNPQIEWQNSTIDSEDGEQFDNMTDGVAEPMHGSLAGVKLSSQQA
UniProt Q9BWD1: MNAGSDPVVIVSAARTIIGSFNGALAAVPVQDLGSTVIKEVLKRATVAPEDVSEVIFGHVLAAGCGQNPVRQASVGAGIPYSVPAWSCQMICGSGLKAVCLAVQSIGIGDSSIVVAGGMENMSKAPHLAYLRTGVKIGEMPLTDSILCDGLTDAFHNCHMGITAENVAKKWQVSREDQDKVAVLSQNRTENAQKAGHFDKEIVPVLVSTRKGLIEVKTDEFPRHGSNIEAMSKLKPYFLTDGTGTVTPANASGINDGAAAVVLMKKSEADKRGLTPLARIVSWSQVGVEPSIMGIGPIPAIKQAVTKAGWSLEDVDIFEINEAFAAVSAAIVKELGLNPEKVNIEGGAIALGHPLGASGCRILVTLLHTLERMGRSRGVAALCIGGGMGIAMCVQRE
UniProt Q9C0F1: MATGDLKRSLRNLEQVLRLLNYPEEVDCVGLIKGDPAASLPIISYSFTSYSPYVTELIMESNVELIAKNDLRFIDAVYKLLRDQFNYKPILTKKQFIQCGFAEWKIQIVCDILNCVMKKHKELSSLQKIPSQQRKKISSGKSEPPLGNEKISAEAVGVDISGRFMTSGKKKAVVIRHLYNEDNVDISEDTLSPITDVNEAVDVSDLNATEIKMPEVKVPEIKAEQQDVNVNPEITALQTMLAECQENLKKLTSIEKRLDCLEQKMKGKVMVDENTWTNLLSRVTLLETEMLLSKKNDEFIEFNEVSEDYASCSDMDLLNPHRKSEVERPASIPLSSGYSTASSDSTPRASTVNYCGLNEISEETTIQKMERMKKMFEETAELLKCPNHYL
UniProt Q9BRF8, whole entry: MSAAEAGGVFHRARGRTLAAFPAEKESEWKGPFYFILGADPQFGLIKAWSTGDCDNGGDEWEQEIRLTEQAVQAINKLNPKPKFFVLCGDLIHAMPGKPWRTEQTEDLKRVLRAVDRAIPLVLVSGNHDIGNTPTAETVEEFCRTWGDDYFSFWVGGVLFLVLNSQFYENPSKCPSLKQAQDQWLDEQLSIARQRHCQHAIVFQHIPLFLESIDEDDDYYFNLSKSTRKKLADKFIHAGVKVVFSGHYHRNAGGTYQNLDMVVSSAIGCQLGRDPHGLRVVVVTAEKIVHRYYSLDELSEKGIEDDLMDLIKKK
UniProt Q9BWH6: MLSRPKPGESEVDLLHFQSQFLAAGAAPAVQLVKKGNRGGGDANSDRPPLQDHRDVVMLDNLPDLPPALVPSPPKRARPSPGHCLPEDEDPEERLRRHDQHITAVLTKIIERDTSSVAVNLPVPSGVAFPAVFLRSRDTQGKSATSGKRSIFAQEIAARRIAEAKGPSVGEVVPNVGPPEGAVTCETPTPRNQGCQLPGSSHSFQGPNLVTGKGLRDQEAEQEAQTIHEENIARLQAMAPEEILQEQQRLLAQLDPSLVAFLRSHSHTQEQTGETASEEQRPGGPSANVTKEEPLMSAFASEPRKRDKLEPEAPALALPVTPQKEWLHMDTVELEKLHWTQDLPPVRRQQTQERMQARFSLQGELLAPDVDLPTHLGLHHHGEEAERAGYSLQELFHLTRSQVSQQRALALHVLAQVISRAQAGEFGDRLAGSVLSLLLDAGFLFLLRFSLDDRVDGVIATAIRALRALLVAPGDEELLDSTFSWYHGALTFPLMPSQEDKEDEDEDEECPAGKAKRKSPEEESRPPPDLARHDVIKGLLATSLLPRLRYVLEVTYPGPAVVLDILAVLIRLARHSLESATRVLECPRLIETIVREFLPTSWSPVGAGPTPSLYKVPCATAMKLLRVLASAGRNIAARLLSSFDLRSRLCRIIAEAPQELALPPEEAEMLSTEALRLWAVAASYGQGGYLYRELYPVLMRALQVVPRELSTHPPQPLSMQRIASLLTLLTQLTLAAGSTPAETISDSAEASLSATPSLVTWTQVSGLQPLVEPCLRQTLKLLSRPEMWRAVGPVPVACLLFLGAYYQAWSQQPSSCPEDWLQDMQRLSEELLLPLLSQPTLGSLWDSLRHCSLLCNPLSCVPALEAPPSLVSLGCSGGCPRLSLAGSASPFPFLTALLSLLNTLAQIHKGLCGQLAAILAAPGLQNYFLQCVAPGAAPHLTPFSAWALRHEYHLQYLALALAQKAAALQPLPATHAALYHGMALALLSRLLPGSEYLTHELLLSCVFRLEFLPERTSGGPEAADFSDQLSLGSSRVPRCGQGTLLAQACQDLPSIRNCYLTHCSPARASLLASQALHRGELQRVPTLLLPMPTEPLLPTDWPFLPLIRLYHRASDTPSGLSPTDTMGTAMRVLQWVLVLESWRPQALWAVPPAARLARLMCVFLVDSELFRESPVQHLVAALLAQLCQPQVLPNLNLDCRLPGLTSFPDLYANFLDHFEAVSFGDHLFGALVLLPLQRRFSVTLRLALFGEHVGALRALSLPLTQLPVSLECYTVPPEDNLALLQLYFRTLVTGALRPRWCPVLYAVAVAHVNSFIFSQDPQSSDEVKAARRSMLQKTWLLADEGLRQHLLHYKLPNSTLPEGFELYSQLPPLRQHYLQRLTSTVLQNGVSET
UniProt Q9BZL1: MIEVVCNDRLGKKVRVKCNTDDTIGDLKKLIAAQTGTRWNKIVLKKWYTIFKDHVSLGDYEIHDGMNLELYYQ

Compound: COC(=O)C#Cc1ccccc1 [methyl 3-phenylpropiolate]
Test: log2 ratio of iodoacetamide-alkyne labeling of the cysteine site, DMSO over compound (competition); higher = stronger covalent engagement of the cysteine by the compound, active = 1 or more
Conditions: 500 µM; treatment time 1 h; system: HEK293T cell lysate
Procedure, shortened: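 For each cysteine, the log2 competition ratio is mean control-channel reporter intensity over mean compound-channel reporter intensity. HEK293T lysate (2 mg/mL) was exposed to vehicle or electrophile (500 µM, 1 h, ambient temperature), labelled with iodoacetamide alkyne (1 h), clicked to sCIP-TMT reagents, digested overnight with trypsin at 37 °C, streptavidin-enriched and analysed by Orbitrap Eclipse LC-MS/MS with FAIMS and FragPipe. Cysteines quantified in only one of three replicates, each with duplicate channels, were excluded.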

| Target | log2 ratio of iodoacetamide-alkyne labeling |
| --- | --- |
| LMF2 C696 (UniProt Q9BU23) | inactive: 0.735 |
| KLC2 C474 (UniProt Q9H0B6) | inactive: 0.252 |
| UniProt Q9BVG4_C125 | inactive: 0.454 |
| PI4K2A C320 (UniProt Q9BTU6) | inactive: 0.261 |
| UniProt Q9BU76_C58 | inactive: 0.972 |
| UniProt Q9H1B7_C35 | inactive: 0.0893 |
| FTO C397 (UniProt Q9C0B1) | inactive: 0.625 |
| ISCU C95 (UniProt Q9H1K1) | inactive: 0.21 |
| TNKS1BP1 C631 (UniProt Q9C0C2) | inactive: 0.0951 |
| MRPL20 C93 (UniProt Q9BYC9) | inactive: -0.00836 |
| TBCD C773 (UniProt Q9BTW9) | inactive: 0.321 |
| UniProt Q9BU76_C179 | inactive: 0.333 |
| RNF126 C229 (UniProt Q9BV68) | inactive: -0.457 |
| UniProt Q9H1E5_C326 | inactive: 0.277 |
| UniProt Q9BW83_C166 | inactive: 0.297 |
| TANC1 C1594 (UniProt Q9C0D5) | active: 1.06 |
| PELO C218 (UniProt Q9BRX2) | inactive: 0.416 |
| ADNP C31 (UniProt Q9H2P0) | inactive: 0.0289 |
| ACAT2 C360 (UniProt Q9BWD1) | inactive: -0.0247 |
| UniProt Q9C0F1_C355 | inactive: 0.225 |
| CPPED1 C54 (UniProt Q9BRF8) | active: 1.01 |
| RPAP1 C195 (UniProt Q9BWH6) | inactive: 0.248 |
| UniProt Q9BZL1_C6 | inactive: 0.0596 |

Pulled one by one from the list above, two records:

| Target | log2 ratio of iodoacetamide-alkyne labeling |
| --- | --- |
| UniProt Q9BU76_C179 | inactive: 0.333 |
| TNKS1BP1 C631 (UniProt Q9C0C2) | inactive: 0.0951 |
